# Hit rate of the full screen: of about 330,000 compounds, about 20 (0.006%) were called active. Inconclusive results, whose numbers are uncertain, are shown with a selection of clear calls. The call rests on the fitted dose curve; in most records, active means well fitted inhibition curve with a large enough effect; inconclusive means small, poorly fitted or top-dose-only effect, or effect the other way; inactive means flat fitted curve, though single readings scatter. A potency beside an inconclusive call is a rough fit, not a confirmed value.
# The chains behind the UniProt entries cited, without tags or fusion partners. Where a name states a change or a piece, a line headed by the entry shows the natural chain unless it says otherwise.
# UniProt O00167: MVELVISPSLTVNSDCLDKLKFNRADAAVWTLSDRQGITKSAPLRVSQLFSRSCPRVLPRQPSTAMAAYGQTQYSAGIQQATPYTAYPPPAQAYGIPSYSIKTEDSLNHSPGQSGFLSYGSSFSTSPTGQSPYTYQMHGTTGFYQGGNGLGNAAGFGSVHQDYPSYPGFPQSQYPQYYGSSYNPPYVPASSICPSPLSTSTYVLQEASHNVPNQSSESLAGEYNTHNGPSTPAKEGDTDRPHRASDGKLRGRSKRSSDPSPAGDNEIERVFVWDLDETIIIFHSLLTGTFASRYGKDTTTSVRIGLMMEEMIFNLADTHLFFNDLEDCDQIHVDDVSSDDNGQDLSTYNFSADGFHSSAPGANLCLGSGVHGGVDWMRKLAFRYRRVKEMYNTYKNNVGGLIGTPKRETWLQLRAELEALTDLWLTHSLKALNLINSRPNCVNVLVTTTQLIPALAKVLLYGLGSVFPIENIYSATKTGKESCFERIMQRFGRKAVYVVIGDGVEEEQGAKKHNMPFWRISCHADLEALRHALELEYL
# Target: Protein phosphatase EYA2 (Homo sapiens) (UniProt O00167)
# Test: qHTS Assay for Inhibitors of the Phosphatase Activity of Eya2
# Conditions: recombinant Eya2, OMFP fluorescence dephosphorylation (OMFP is methylfluorescein phosphate); activity, negative = inhibition: at 76.9 µM (top of the series) unless noted
# Outline: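 Eya2 protein (added as 0.2 uM solution) was preincubated with compound for 10 min at ambient temperature in 50 mM HEPES pH 7.5, 50 mM NaCl, 5 uM MgCl2, 0.05% BSA, 1 mM DTT. OMFP (added at 50 uM) then reacted 10 min; fluorescence read at 485/525 nm.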
# On the % scale 0 is the no-effect control and ±100 the full control effect; potency means the concentration at half of the fitted maximal effect.
Compound,Potency,"activity, negative = inhibition"
Cc1cc(C)nc(NC(=O)c2csnn2)c1,"inconclusive: 100 µM [inhibitor, single point]",
C=CCSc1cc(C)nc2c(-c3ccccc3)cnn12,"inconclusive: 100 µM [inhibitor, single point]",
Cn1c(Cl)c(C(=O)Nc2ccc(Cl)cc2)c2ccccc21,"inconclusive: 562 µM [inhibitor, single point]",
O=S(=O)(c1ccc(Cl)nc1)N1CCC(Cc2ccccc2)CC1,"inconclusive: 25.1 µM [inhibitor, partial curve, poor fit]",
CCN(CC)c1ccc2c(c1)OC(N)=C(C#N)C2c1cccnc1 (stereo unspecified),,inconclusive: 48.2% [activator]
COc1cc(C2c3[nH]c4ccccc4c3CCN2Cc2cn(C)nc2C)ccc1F (stereo unspecified),"inconclusive: 25.1 µM [inhibitor, single point]",
O=c1c2ccccc2c(-c2ccc(Br)cc2)nn1Cc1ccccc1,"inconclusive: 22.4 µM [inhibitor, single point]",
Cc1c(NCc2ccncc2)cccc1C(=O)O,"inconclusive: 25.1 µM [inhibitor, partial curve, poor fit]",
Cc1cccc(/C=N/NC(=O)Cc2cccs2)c1,,inactive: -21%
COc1ccc(CN2C(=O)c3ccccc3C2=O)cc1,"inconclusive: 22.4 µM [inhibitor, single point]",
CCOc1ccc(/C(O)=C2/C(=O)C(=O)N(c3ccccn3)C2c2ccc(Cl)cc2)c(C)c1 (stereo unspecified),"inconclusive: 141 µM [inhibitor, single point]",
O=C(O)c1cc(Cl)ccc1-c1ccc(/C=C/c2cc(C(F)(F)F)[nH]c(=O)n2)o1,"inconclusive: 39.8 µM [activator, partial curve]",
COc1ccc(NC(=O)CSc2ccc3nnc(-c4cccnc4)n3n2)c(OC)c1,,inactive: 0.489%
COCCN(C(=O)CCC(=O)Nc1ccccn1)C(C(=O)NCCC(C)C)c1ccc(F)cc1 (stereo unspecified),"inconclusive: 100 µM [inhibitor, single point]",
O=S1(=O)C=C(Sc2nc3cc(Cl)ccc3o2)c2ccccc21,,inactive: -0.538%
Cc1ccc(NC(=S)NC(=O)c2ccccc2)cc1NC(=S)NC(=O)c1ccccc1,,inactive: 3.32%
Cc1ccc(OC(=O)c2ccc3nc(C)sc3c2)cc1,,inactive: -3.64%
CC(NC(=O)CN(C)Cc1ccc(Br)cc1)c1ccccc1 (stereo unspecified),"inconclusive: 100 µM [inhibitor, single point]",
CC(=Nc1ccc(O)cc1)c1sc2ccccc2c1O,,inactive: 4.22%
CCC(C)C(=O)Nc1ccc(S(=O)(=O)N2CCCC2)cc1 (stereo unspecified),"inconclusive: 22.4 µM [inhibitor, single point]",
CCCCN(C)c1nc(-c2ccco2)c2c(c1C#N)CC(C)(C)OC2,,inactive: -0.208%
O=C(Cn1nc(-c2ccccc2)ccc1=O)Nc1ccc(N2CCN(C(=O)c3cccs3)CC2)cc1,"inconclusive: 100 µM [inhibitor, single point]",
CCN1C(=O)/C(=C/c2ccc(N3CCCC3)cc2)NC1=S,"inconclusive: 31.6 µM [activator, partial curve]",
CCOC(=O)/C(N=Nc1ccc(Cl)cc1)=C(/O)c1ccc([N+](=O)[O-])cc1,"inconclusive: 79.4 µM [inhibitor, single point]",

Compound,Potency,"activity, negative = inhibition"
CCOC(=O)C1=C(CC)OC(N)=C(C#N)C1c1cc(OC)ccc1OC (stereo unspecified),,inactive: 2.73%
Nc1scc2c(C(=O)N/N=C/c3ccc(Cl)cc3)nn(-c3ccccc3)c(=O)c12,,inactive: 6.13%
Oc1c(CN2CCOCC2)cc(-c2ccccc2)cc1CN1CCOCC1,"inconclusive: 20 µM [inhibitor, single point]",
COc1ccc(Cl)cc1NC(=O)CSc1nnc(C2CC2)n1C,,inactive: -12%
N#CCCN1CCN(C(=S)c2ccc(-c3ccc(Cl)c(Cl)c3)o2)CC1,"inconclusive: 14.1 µM [inhibitor, single point]",
O=C(CCCSc1nc2ccccc2[nH]1)NC1CCCCC1,,inactive: 15.9%
O=C(NC(=S)Nc1ccccc1N1CCOCC1)c1ccc(-c2cccc(Cl)c2)o1,,inactive: 1.14%
O=C(NCCNS(=O)(=O)c1ccc(C(F)(F)F)cc1)N1CCOCC1,"inconclusive: 89.1 µM [inhibitor, single point]",
CCc1nc2c(sc3nc4c(cc32)COC(C)(C)C4)c(=O)n1Cc1ccccc1,"inconclusive: 89.1 µM [inhibitor, single point]",
CS(=O)(=O)N1CC2CCCN2c2cc(C(F)(F)F)ccc21 (stereo unspecified),"inconclusive: 25.1 µM [inhibitor, single point]",
Nn1cc(-c2ccccc2)nc1SCC(=O)NCC(F)(F)F,,inconclusive: -36% [inhibitor]
O=C(NC(NC(=S)Nc1ccccc1O)C(Cl)(Cl)Cl)c1ccco1 (stereo unspecified),"inconclusive: 39.8 µM [activator, partial curve]",
O=C(NCCN1CCOCC1)c1nn2c(c1Cl)NC(c1ccccc1)CC2C(F)(F)F (stereo unspecified),"inconclusive: 22.4 µM [inhibitor, single point]",
CN(CCCC(=O)NC1CC(C)(C)NC(C)(C)C1)S(=O)(=O)c1ccc([N+](=O)[O-])cc1,"inconclusive: 89.1 µM [inhibitor, single point]",
Cc1ccc2nc3sc(C(=O)Nc4ccc(F)cc4)cc3cc2c1,,inactive: 0.633%
O=C(Nc1ncn[nH]1)c1ccccc1O,"inconclusive: 89.1 µM [inhibitor, single point]",
CCN1CCN(C2=CC3=CC(=C(C#N)C#N)CCC3CC2)CC1 (stereo unspecified),"inconclusive: 31.6 µM [activator, partial curve]",
N#C/C(=C\c1ccc(N2CCOCC2)o1)c1nc2ccccc2[nH]1,"inconclusive: 25.1 µM [activator, partial curve]",
O=C(COC(=O)c1ccc([N+](=O)[O-])o1)Nc1ccc(Br)cc1F,,inactive: 2.38%
CSCC[C@H](NC(=O)[C@@H]1Cc2ccccc2CN1)C(=O)Nc1ccc2c(c1)OCCO2,"inconclusive: 20 µM [inhibitor, partial curve]",
O=C1c2cccc3c(O)ccc(c23)C(=O)N1Cc1ccco1,"inconclusive: 31.6 µM [activator, partial curve]",
CCCNC(=O)N1CCN(S(C)(=O)=O)CC1,"inconclusive: 28.2 µM [inhibitor, single point]",
Cc1nnc(C)c2c(C)n(-c3ccc(Br)cc3)c(C)c12,"inconclusive: 20 µM [inhibitor, single point]",
Cc1cc(C)n(CCC(=O)N/N=C/c2ccc(Cl)c([N+](=O)[O-])c2)n1,"inconclusive: 15.8 µM [inhibitor, single point]",

Compound,Potency,"activity, negative = inhibition"
CC1CN(CCOc2ccc(F)cc2)CC(C)O1 (stereo unspecified),"inconclusive: 100 µM [inhibitor, single point]",
c1cncc(-c2noc(-c3cccc4ccccc34)n2)c1,,inactive: -5.45%
O=C(NCc1cccc(F)c1)c1cccc2c1C(=O)c1ccc(N3CCC(Cc4ccccc4)CC3)cc1S2(=O)=O,"inconclusive: 79.4 µM [activator, partial curve]",
S=C(NCc1cccs1)Nc1ccc(Br)cc1Cl,"inconclusive: 89.1 µM [inhibitor, single point]",
CCOc1ccc(C(=O)NN2C(=O)C3C4C=CC(O4)C3C2=O)cc1 (stereo unspecified),,inactive: -0.899%
FC(F)(F)c1ccccc1-n1c(-c2ccco2)n[nH]c1=S,"inconclusive: 50.1 µM [inhibitor, single point]",
COc1cc(NC(=O)c2ccc(C)cc2C)ccc1NC(=O)c1cc2ccccc2o1,"inconclusive: 20 µM [inhibitor, single point]",
O=C(COc1c(Br)cc(Br)c2cccnc12)N1CCCCC1,,inactive: -4.93%
O=C(Cc1ccccc1)NNC(=O)Nc1ccc(Cl)c(Cl)c1,,inactive: -0.052%
CN(C)S(=O)(=O)N1CCN(c2ccc([N+](=O)[O-])c(NC3CC3)c2)CC1,"inconclusive: 141 µM [inhibitor, single point]",
Cn1nc(NC(=O)C(C)(C)C)c2c(F)cccc21,"inconclusive: 100 µM [inhibitor, partial curve, poor fit]",
CSc1ccc(CN2CCCCCC2)cc1,"inconclusive: 100 µM [inhibitor, single point]",
Cc1cc(C)n(-c2nnc3c4ccccc4n(C)c3n2)n1,"inconclusive: 79.4 µM [inhibitor, single point]",
Cc1cc2sc(NC(=O)c3ccco3)nc2cc1Cl,"inconclusive: 1120 µM [inhibitor, partial curve, poor fit]",
CCCNC(C)C(=O)Nc1ccccc1C (stereo unspecified),"inconclusive: 22.4 µM [inhibitor, single point]",
CC[n+]1c(/C=C2\Sc3ccccc3N2C)ccc2cccc(C)c21,"inconclusive: 126 µM [activator, partial curve]",
Cc1ccccc1NC(=O)C1CC(=O)N(c2ccc3c4c(cccc24)CC3)C1 (stereo unspecified),"inconclusive: 22.4 µM [inhibitor, single point]",
CC(=O)C1=C(O)CC(C)(C)CC1=NCCc1nc2ccccc2[nH]1,"inconclusive: 79.4 µM [inhibitor, single point]",
CCC(Sc1ncnc2sc(C)c(C)c12)C(=O)OC (stereo unspecified),"inconclusive: 15.8 µM [inhibitor, single point]",
CCOc1ccc(NC(=O)c2cc(S(=O)(=O)N3CCOCC3)cn2C)cc1,"inconclusive: 56.2 µM [inhibitor, partial curve]",
CSC(=S)N/N=C(\C)c1ccc(Br)cc1,,inactive: -6.07%
COCc1cc(C)n(CC(=O)Nc2ccccc2OC)c(=O)c1C#N,,inactive: 4.95%
CCCS(=O)(=O)c1c(S(=O)(=O)CCC)c2c(N)cccn2c1C(=O)c1ccc(F)cc1,,inactive: -7.7%

# Gathered by group: those above containing a COOH group (two)
Compound,Potency,"activity, negative = inhibition"
Cc1c(NCc2ccncc2)cccc1C(=O)O,"inconclusive: 25.1 µM [inhibitor, partial curve, poor fit]",
O=C(O)c1cc(Cl)ccc1-c1ccc(/C=C/c2cc(C(F)(F)F)[nH]c(=O)n2)o1,"inconclusive: 39.8 µM [activator, partial curve]",

# Source: PubChem BioAssay AID488837 (National Center for Advancing Translational Sciences (NCATS), 2010)
